These are yes or no findings as the source states them, for the method shown. Binding seen in cells or lysates may run through a third protein. Binding calls can cover weak binding; strength is not graded here.
Target: T1, Dok1–Clover (UniProt Q99704)
T1 sequence: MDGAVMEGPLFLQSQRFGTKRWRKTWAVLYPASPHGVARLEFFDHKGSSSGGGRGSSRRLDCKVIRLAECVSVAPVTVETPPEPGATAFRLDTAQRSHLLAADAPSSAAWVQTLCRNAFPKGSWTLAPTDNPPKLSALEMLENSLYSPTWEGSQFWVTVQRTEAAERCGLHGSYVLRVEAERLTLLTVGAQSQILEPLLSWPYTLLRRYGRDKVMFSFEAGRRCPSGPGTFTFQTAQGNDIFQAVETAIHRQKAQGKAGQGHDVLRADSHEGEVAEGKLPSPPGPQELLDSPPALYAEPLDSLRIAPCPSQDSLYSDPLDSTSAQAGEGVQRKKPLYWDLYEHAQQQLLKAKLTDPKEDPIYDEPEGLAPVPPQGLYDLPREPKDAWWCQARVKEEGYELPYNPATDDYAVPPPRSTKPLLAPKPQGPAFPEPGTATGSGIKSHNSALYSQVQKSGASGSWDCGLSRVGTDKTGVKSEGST
Assay: FRET or BRET; intermolecular FLIM–FRET of tagged protein pairs (Clover or mEmerald donor, mRFP or mScarlet acceptor); mScarlet alone with the donor-tagged protein as negative control

binding: binds
Substance: RFP-tagged Cofilin WT

From publication PMC12173946
